From PubChem BioAssay AID1259415 (National Center for Advancing Translational Sciences (NCATS), 2018)
In all, about 410,000 compounds went through this assay and about 18,000 (4.4%) were called active. Inconclusive results, whose numbers are uncertain, are shown with a selection of clear calls. Rule as the data show it: active = activity change below about -60%; inconclusive = no clear call, values can overlap the other calls; inactive = above about -39%.

Experiment: qHTS Assay for inhibitors of the human cytomegalovirus (HCMV)
Details: HFF cells, HCMV-luciferase reporter, 72 h; at 57.5 µM; stronger effect = lower value
Outline: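 Luciferase read-out from HCMV-luciferase-infected HFFs (MOI 1 PFU/cell) 72 h post infection at 37C; compounds added after 16 h cell attachment; activity normalized between buffer-only basal and Salinomycin (10uM) inhibitor controls.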
% is scaled to controls: 0 for no effect and ±100 for the full control effect.

| Structure (SMILES) | activity change, negative = inhibition |
| --- | --- |
| CC(C)(C)Cc1nc(-c2ccccn2)no1 | inactive: -18.1% |
| CCCc1nnc(NC(=O)CCC(=O)N2CCN(Cc3ccccc3)CC2)s1 | inactive: -21.5% |
| CNc1ccccc1-c1nc2ccccc2n(C)c1=O | inactive: -38.3% |
| CCn1c(=N)c(C(=O)NCc2cccnc2)cc2c(=O)n3cc(C)ccc3nc21 | inconclusive: -49.6% |
| O=[N+]([O-])c1cccc(-c2ccc(/C=N/NC(=S)Nc3cccc(F)c3)o2)c1 | inconclusive: -52.1% |
| CN(C)CC(C)(C)CNS(=O)(=O)c1cccc(Cl)c1Cl | inconclusive: -59.7% |
| COc1cc(/C=C/C(=O)OCC(=O)Nc2ccc([N+](=O)[O-])cc2)ccc1O | inconclusive: -40.7% |
| Cc1ccc(S(=O)(=O)N(C)CC(=O)OCC(=O)NC(c2ccccc2)c2ccccc2)cc1 | inconclusive: -52.7% |
| CC(C)(C)C(=O)Nc1ccccc1C(=O)OCC(=O)c1ccc2c(c1)OCCO2 | inactive: -36.8% |
| O=C1NC2C(O)C(O)C(O)C(O)C2c2cc3c(c(O)c21)OCO3 (stereo unspecified) | active: -97.7% |
| CC1=NNC(=O)/C1=C\c1cn(-c2ccccc2)nc1-c1ccccc1 | active: -100% |
| Cn1c(=O)c2c(ncn2Cc2nnc(N)s2)n(C)c1=O | inconclusive: -44.8% |
| Cc1nc(N)nc(N)c1-c1ccc(Cl)c(Cl)c1 | active: -97.6% |
| CCCOc1cccc(C(=O)NCCCNC(=O)c2ccccn2)c1 | inconclusive: -53.6% |
| Cc1noc(C)c1COc1ccc(C(=O)N2CCN(S(=O)(=O)c3ccccc3)CC2)cc1 | inconclusive: -49.6% |
| CCOc1ccccc1C(=O)N(Cc1ccc(N(C)C)cc1)CC1CCCO1 (stereo unspecified) | inconclusive: -44.9% |
| CC1(C)N=C(SCC(=O)Nc2ccc(Cl)cc2)C(c2ccccc2)=N1 | active: -80.3% |
| COc1ccccc1-c1cc(C(F)(F)F)nc(S(=O)(=O)CCCC(=O)Nc2cccnc2Cl)n1 | active: -90.1% |
| COc1ccc(C2CC(=O)c3c([nH]c(C(=O)OC4CCC(C)CC4)c3C)C2)cc1OC (stereo unspecified) | inconclusive: -41.1% |

| Structure (SMILES) | activity change, negative = inhibition |
| --- | --- |
| CCOC(=O)C(=CNc1ccc(-c2ccco2)c(Cl)c1)C(=O)OCC | inconclusive: -54.1% |
| Cc1cc(C)n2nc(SCC(=O)N3CC(C)CC(C)C3)nc2n1 (stereo unspecified) | active: -65.1% |
| Cc1ccccc1OCC(O)Cn1c(=N)n(CCN2CCOCC2)c2ccccc21 (stereo unspecified) | inconclusive: -58.1% |
| CCCC(Oc1ccc(Br)cc1)c1nc2c3cc(OC)c(OC)cc3nc(=S)n2[nH]1 (stereo unspecified) | active: -86.3% |
| CCOC(=O)c1sc(Nc2ccc(C)cc2C)nc1C | inconclusive: -52.7% |
| CCN1CCN(C(=S)Nc2ccc(Cl)cc2Cl)CC1 | inconclusive: -42.5% |
| COc1cc(-c2cc3nc(NCCOc4ccccc4)ccn3n2)cc(OC)c1OC | inactive: 45.6% |
| CCCn1c(C)cc(C(=O)CSc2nc3ccccc3c(=O)n2Cc2ccco2)c1C | inconclusive: -49.4% |
| O=C(COC(=O)C1CCN(C(=O)Nc2ccccc2)CC1)NCC(F)(F)F | inconclusive: -40.4% |
| CCCOc1ccccc1C1NC(=O)NC(C)=C1C(=O)OCc1ccccc1 (stereo unspecified) | inconclusive: -55% |
| CCc1ccc2c(c1)cc(CN(C(=S)Nc1ccc(Cl)cc1)C1CC1)c1nnnn12 | inactive: -22.6% |
| Cc1ccc(SCC(=O)NCCCc2ccccc2)cc1 | inconclusive: -49.3% |
| O=C(Nc1ccccc1Sc1ccccc1)c1ccc(F)cc1 | inconclusive: -43.6% |
| COCCn1c(SCC(=O)/C=C2\N(C)c3ccccc3C2(C)C)nnc1-c1ccncc1 | active: -74.5% |
| CCO[C@@H]1OC(C(N)=O)=C[C@H](c2ccc3c(c2)OCO3)[C@H]1CCCO | active: -95.2% |
| COCC1CCCCN1C(=O)C1CCN(c2nc(-c3ccccc3)nc3c2CCC3)CC1 (stereo unspecified) | inconclusive: -40.7% |
| COc1cc(C)nc(N(C)S(=O)(=O)c2ccccc2Cl)n1 | inconclusive: -50.7% |
| O=C(CCc1ccccc1)NC(=S)NCc1ccco1 | inconclusive: -51.6% |
| CCCCN(C(C)=O)C1CC(=O)N(c2ccc(OCCC)cc2)C1=O (stereo unspecified) | inactive: -0.832% |

4 entries from above, with bars between the fields:
Structure (SMILES) | activity change, negative = inhibition
CCCn1c(C)cc(C(=O)CSc2nc3ccccc3c(=O)n2Cc2ccco2)c1C | inconclusive: -49.4%
CCCOc1ccccc1C1NC(=O)NC(C)=C1C(=O)OCc1ccccc1 (stereo unspecified) | inconclusive: -55%
Cc1ccc(SCC(=O)NCCCc2ccccc2)cc1 | inconclusive: -49.3%
COc1cc(C)nc(N(C)S(=O)(=O)c2ccccc2Cl)n1 | inconclusive: -50.7%

Remaining list, next part:

| Structure (SMILES) | activity change, negative = inhibition |
| --- | --- |
| COc1ccccc1C(=O)Nc1ccc2nc(N3CCC(C)CC3)cc(C)c2c1 | inconclusive: -45.4% |
| CCOc1ccc(N2CC(C(=O)Nc3ccncc3)CC2=O)cc1 (stereo unspecified) | inconclusive: -56.4% |
| c1ccc(-c2noc(CC3CCCCC3)n2)cc1 | inconclusive: -40% |
| Cc1ccc(C(=O)Nc2ccc(Br)cc2)cc1S(=O)(=O)N1CCOCC1 | inconclusive: -53.4% |
| COc1ccccc1CN1CCNC(=O)C1CC(=O)N(C)Cc1nc(C)cs1 (stereo unspecified) | inactive: 22.3% |
| Cc1nnsc1S(=O)c1ccc(Cl)cc1 (stereo unspecified) | inconclusive: -57.6% |
| CN(c1ccc(OCC(=O)Nc2ccc(S(N)(=O)=O)cc2)cc1)S(=O)(=O)c1ccc(F)cc1 | inconclusive: -45.6% |
| Cc1ccc2nc(-c3ccc(NC(=O)COC(=O)c4ccc([N+](=O)[O-])o4)cc3)sc2c1 | inconclusive: -42.4% |
| CC(=O)Nc1ccc(Nc2nc(-c3ccccc3)nc3ccccc23)cc1 | active: -93.9% |
| O=C(c1csc2c1CCCC2)N1CCN(c2ncccn2)CC1 | inconclusive: -44.4% |
| CC(C)c1onc(C(=O)NC2CCCC2)c1[N+](=O)[O-] | inconclusive: -43.5% |
| c1ccc2c(c1)OCCc1c-2[nH]c2ccccc12 | inconclusive: -48% |
| Cc1nn(C(=O)c2ccccc2F)c(C)c1S(=O)(=O)N1CCOCC1 | inactive: 3.03% |
| CCc1ccc(CNC(=O)c2ccc3c(c2)NC(=O)C(N2CCOCC2)S3)cc1 (stereo unspecified) | inconclusive: -43.5% |
| CCN(CC(=O)NCc1cccs1)C(=O)c1ccc(-c2ccccc2F)o1 | inconclusive: -56.2% |
| CCc1ccc(N2C(=O)/C(=C/c3cccs3)N(CC(=O)OC)C2=S)cc1 | inconclusive: -42.8% |
| Cc1ccc(NCc2ccc(O)c3ncccc23)cc1 | inactive: -23.4% |
| CN(CCc1ccccc1)C(=O)c1ccc(NC(=O)Cc2ccc(NC(=O)C3CCCN(C(=O)C4CC4)C3)cc2)cc1 (stereo unspecified) | inactive: -20.6% |
